PubChem BioAssay AID1224830, NIAID | 2016
Test: 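Genes whose knock-down alters the TNF-alpha reporter response to LPS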 (primary screen). System: human THP-1 monocytic leukaemia cells, TNF dual-luciferase reporter clone, PMA-differentiated to macrophage-like cells. Knock-down reagent: siRNA pool against human genes, 50 nM. Duration: LPS for 4 h, given about 3 days after siRNA transfection. Conditions: bacterial LPS (TLR4 ligand), 10 ng/ml. Measurement: 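TNF firefly reporter luminescence divided by renilla, normalised to the plate median, then turned into a robust z-score for each replicate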. Scale: TNF reporter robust z-score: higher = stronger TNF reporter response to LPS. Active means: 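a well is active when its z-score exceeds 2.8 or falls below -1.5; control wells carry no call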.
Shown is an unselected part of about 18,000 deposited reagents. About 2,900 of them (16%) count as active. 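Calls are made per well; low scores hint the gene aids the LPS response, high scores that it dampens it.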 A number with no mark means an inactive call. Repeated entries: four replicate wells of each siRNA pool.

| target gene | TNF reporter robust z-score |
| --- | --- |
| HP1BP3 | -0.56 |
| HP1BP3 | 1.24 |
| HP1BP3 | 0.07 |
| HP1BP3 | 0.02 |
| EGR3 | 0.32 |
| EGR3 | -0.68 |
| EGR3 | 0.01 |
| EGR3 | -0.05 |
| AGRP | -0.37 |
| AGRP | -0.89 |
| AGRP | -0.38 |
| AGRP | 0.48 |
| RTL6 | -1.75 (active) |
| RTL6 | -0.43 |
| RTL6 | -0.96 |
| RTL6 | -0.28 |
| CTPS1 | 0.3 |
| CTPS1 | -0.34 |
| CTPS1 | -0.33 |
| CTPS1 | 0.65 |
| CLDN17 | 0.31 |
| CLDN17 | 0.29 |
| CLDN17 | 0.1 |
| CLDN17 | -0.59 |
| GARIN3 | -0.2 |
| GARIN3 | 0.67 |
| GARIN3 | -0.4 |
| GARIN3 | 2.17 |
| RPL23A | -0.97 |
| RPL23A | -0.75 |
| RPL23A | -0.93 |
| RPL23A | -0.37 |
| TMEM50A | 0.94 |
| TMEM50A | 0.76 |
| TMEM50A | 0.08 |
| TMEM50A | -0.11 |
| OR52N4 | -1.77 (active) |
| OR52N4 | -1.43 |
| OR52N4 | -0.75 |
| OR52N4 | -0.28 |
| POLI | 1.8 |
| POLI | 0.7 |
| POLI | 0.41 |
| POLI | 0.79 |
| OR8B12 | -0.89 |
| OR8B12 | -0.92 |
| OR8B12 | -1.52 (active) |
| OR8B12 | -0.52 |
